Values from PubChem BioAssay AID743121 (NCATS, 2013)
Screen: 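Knock-downs that sensitise breast cancer cells to camptothecin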 (primary screen). Cells: MDA-MB-231 cells, a human breast cancer line. Reagents: single siRNA against human genes, 20 nM siRNA (0.8 pmol per well). Duration: 120 h (drug added 48 h after transfection, read 72 h later). Conditions: camptothecin 20 nM (about EC30) for 72 h; vehicle 0.1% DMSO in parallel plates. Detection: 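Cell viability by ATP luminescence (CellTiter-Glo) as % of non-targeting siRNA wells, and the log2 ratio of viability without drug over viability with camptothecin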. Direction: log2 vehicle/camptothecin viability: higher = stronger sensitisation to camptothecin; viability with camptothecin and viability without drug: higher = more viable cells. Call rule: 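Each gene scored by redundant siRNA activity (RSA) over its individual siRNA ratios; a gene is called active at p < 0.001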.
This is an unselected part of about 26,000 reagents tested. Of all reagents, 167 (0.63%) got an active call. 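Calls are per gene from RSA p-values that are not deposited; an individual active-marked siRNA can sensitise only weakly.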 A number with no mark means an inactive call. The numbers tell different reagents against one gene apart. Reagent sequences are not shown.

| gene | reagent | log2 vehicle/camptothecin viability | viability with camptothecin (% of control) | viability without drug (% of control) |
| --- | --- | --- | --- | --- |
| MTMR12 (myotubularin related protein 12) | 1 | -0.333 | 61.2 | 48.6 |
| MTMR12 (myotubularin related protein 12) | 2 | -0.0157 | 79.1 | 78.3 |
| MTMR12 (myotubularin related protein 12) | 3 | -0.217 | 46.6 | 40.1 |
| MTMR12 (myotubularin related protein 12) | 4 | -0.0458 | 70.5 | 68.3 |
| PRKX (protein kinase cAMP-dependent X-linked catalytic subunit) | 1 | -0.221 | 78.6 | 67.4 |
| PRKX (protein kinase cAMP-dependent X-linked catalytic subunit) | 2 | -0.159 | 19.3 | 17.3 |
| PRKX (protein kinase cAMP-dependent X-linked catalytic subunit) | 3 | -0.175 | 106 | 93.5 |
| PRKX (protein kinase cAMP-dependent X-linked catalytic subunit) | 4 | -0.198 | 107 | 93.2 |
| GNRH1 (gonadotropin releasing hormone 1) | 1 | -0.336 | 85.2 | 67.5 |
| GNRH1 (gonadotropin releasing hormone 1) | 2 | -0.201 | 97.8 | 85.1 |
| GNRH1 (gonadotropin releasing hormone 1) | 3 | -0.043 | 83.8 | 81.3 |
| IL6ST (interleukin 6 cytokine family signal transducer) | 1 | -0.0146 | 85.7 | 84.8 |
| IL6ST (interleukin 6 cytokine family signal transducer) | 2 | -0.213 | 78.2 | 67.4 |
| IL6ST (interleukin 6 cytokine family signal transducer) | 3 | -0.12 | 122 | 112 |
| IL6ST (interleukin 6 cytokine family signal transducer) | 4 | 0.0818 | 66.6 | 70.5 |
| SERPINA5 (serpin family A member 5) | 1 | -0.277 | 62.8 | 51.8 |
| SERPINA5 (serpin family A member 5) | 2 | -0.38 | 85.5 | 65.7 |
| SERPINA5 (serpin family A member 5) | 3 | 0.0153 | 72.9 | 73.6 |
| SERPINA5 (serpin family A member 5) | 4 | -0.289 | 73.6 | 60.2 |
| BAP1 (BRCA1 associated deubiquitinase 1) | 1 | 0.227 | 90.5 | 106 |
| BAP1 (BRCA1 associated deubiquitinase 1) | 2 | -0.452 | 28.3 | 20.7 |
| BAP1 (BRCA1 associated deubiquitinase 1) | 3 | -0.503 | 80.4 | 56.7 |
| BAP1 (BRCA1 associated deubiquitinase 1) | 4 | -0.178 | 74.7 | 66.1 |
| GNPAT (glyceronephosphate O-acyltransferase) | 1 | -0.108 | 109 | 101 |
| GNPAT (glyceronephosphate O-acyltransferase) | 2 | -0.222 | 62.3 | 53.4 |
| GNPAT (glyceronephosphate O-acyltransferase) | 3 | 0.512 | 37.1 | 52.9 |
| GNPAT (glyceronephosphate O-acyltransferase) | 4 | 0.459 | 45.6 | 62.7 |
| SLC9A8 | 1 | -0.189 | 56.7 | 49.7 |
| SLC9A8 | 2 | 0.229 | 62.3 | 73.1 |
| SLC9A8 | 3 | -0.508 | 80 | 56.3 |
| SLC9A8 | 4 | 0.35 | 62.5 | 79.7 |
| ABCC4 (ATP binding cassette subfamily C member 4 (PEL blood group)) | 1 | -0.435 | 44.9 | 33.2 |
| ABCC4 (ATP binding cassette subfamily C member 4 (PEL blood group)) | 2 | 0.0101 | 72.7 | 73.2 |
| ABCC4 (ATP binding cassette subfamily C member 4 (PEL blood group)) | 3 | -0.573 | 101 | 68.1 |
| ABCC4 (ATP binding cassette subfamily C member 4 (PEL blood group)) | 4 | -0.157 | 89.7 | 80.5 |
| SDHA (succinate dehydrogenase complex flavoprotein subunit A) | 1 | -0.294 | 73 | 59.5 |
| SDHA (succinate dehydrogenase complex flavoprotein subunit A) | 2 | -0.174 | 64.4 | 57.1 |
| SDHA (succinate dehydrogenase complex flavoprotein subunit A) | 3 | -0.163 | 58.9 | 52.6 |
| SDHA (succinate dehydrogenase complex flavoprotein subunit A) | 4 | -0.112 | 84.8 | 78.4 |
| LDHA (lactate dehydrogenase A) | 1 | -0.313 | 114 | 91.5 |
| LDHA (lactate dehydrogenase A) | 2 | 0.382 | 35.3 | 46 |
| LDHA (lactate dehydrogenase A) | 3 | -0.0735 | 106 | 101 |
| LDHA (lactate dehydrogenase A) | 4 | -0.215 | 62.8 | 54.1 |
| EIPR1 (EARP complex and GARP complex interacting protein 1) | 1 | -0.115 | 37.4 | 34.5 |
| EIPR1 (EARP complex and GARP complex interacting protein 1) | 2 | -0.562 | 55.6 | 37.6 |
| EIPR1 (EARP complex and GARP complex interacting protein 1) | 3 | -0.188 | 119 | 105 |
| EIPR1 (EARP complex and GARP complex interacting protein 1) | 4 | -0.246 | 66.5 | 56.1 |
| SUFU (SUFU negative regulator of hedgehog signaling) | 1 | 1.1 | 19.8 | 42.4 |
| SUFU (SUFU negative regulator of hedgehog signaling) | 2 | -0.013 | 88.9 | 88.1 |
| SUFU (SUFU negative regulator of hedgehog signaling) | 3 | 0.249 | 70.3 | 83.6 |
| SUFU (SUFU negative regulator of hedgehog signaling) | 4 | 0.035 | 95.4 | 97.8 |
| SLC6A17 | 1 | 1.02 | 20.2 | 40.9 |
| SLC6A17 | 2 | -0.135 | 99.7 | 90.8 |
| SLC6A17 | 3 | -0.522 | 80.5 | 56.1 |
| SLC6A17 | 4 | -0.169 | 56.4 | 50.1 |
| UCKL1 (uridine-cytidine kinase 1 like 1) | 1 | -0.241 | 52.6 | 44.5 |
| UCKL1 (uridine-cytidine kinase 1 like 1) | 2 | 0.872 | 22.1 | 40.5 |
| UCKL1 (uridine-cytidine kinase 1 like 1) | 3 | -0.291 | 94.1 | 76.9 |
| UCKL1 (uridine-cytidine kinase 1 like 1) | 4 | -0.133 | 64.9 | 59.2 |
| DAD1 (defender against cell death 1) | 1 | 0.324 | 80.5 | 101 |
| DAD1 (defender against cell death 1) | 2 | 0.528 | 47.1 | 67.9 |
| DAD1 (defender against cell death 1) | 3 | -0.307 | 61.7 | 49.9 |
| RPL10 (ribosomal protein L10) | 1 | 0.133 | 50.2 | 55 |
| RPL10 (ribosomal protein L10) | 2 | 0.00272 | 53.9 | 54 |
| RPL10 (ribosomal protein L10) | 3 | -0.107 | 114 | 105 |
| RPL10 (ribosomal protein L10) | 4 | -0.458 | 13.4 | 9.74 |
| RPL10 (ribosomal protein L10) | 5 | -0.925 | 37.8 | 19.9 |
| RPL10 (ribosomal protein L10) | 6 | -0.572 | 33.6 | 22.6 |
| TRAPPC10 (trafficking protein particle complex subunit 10) | 1 | -0.227 | 91.5 | 78.2 |
| TRAPPC10 (trafficking protein particle complex subunit 10) | 2 | -0.36 | 79.1 | 61.6 |
| TRAPPC10 (trafficking protein particle complex subunit 10) | 3 | 0.283 | 8.54 | 10.4 |
| TRAPPC10 (trafficking protein particle complex subunit 10) | 4 | 0.161 | 81.2 | 90.8 |
| TNFSF4 (TNF superfamily member 4) | 1 | -0.00139 | 75.7 | 75.6 |
| TNFSF4 (TNF superfamily member 4) | 2 | -0.257 | 84.1 | 70.4 |
| TNFSF4 (TNF superfamily member 4) | 3 | 0.29 | 51.7 | 63.3 |
| TNFSF4 (TNF superfamily member 4) | 4 | -0.278 | 126 | 104 |
| TUBB4A (tubulin beta 4A class IVa) | 1 | -0.218 | 72.4 | 62.2 |
| TUBB4A (tubulin beta 4A class IVa) | 2 | -0.156 | 41.8 | 37.5 |
| TUBB4A (tubulin beta 4A class IVa) | 3 | -0.495 | 8.16 | 5.79 |
| TUBB4A (tubulin beta 4A class IVa) | 4 | -0.324 | 91.2 | 72.9 |
| DAGLA (diacylglycerol lipase alpha) | 1 | -0.168 | 44.2 | 39.4 |
| DAGLA (diacylglycerol lipase alpha) | 2 | -0.053 | 85.1 | 82.1 |
| DAGLA (diacylglycerol lipase alpha) | 3 | 0.0522 | 63.2 | 65.5 |
| DAGLA (diacylglycerol lipase alpha) | 4 | -0.00492 | 105 | 105 |
| OASL (2'-5'-oligoadenylate synthetase like) | 1 | -0.0862 | 15.4 | 14.5 |
| OASL (2'-5'-oligoadenylate synthetase like) | 2 | -0.164 | 49.6 | 44.3 |
| OASL (2'-5'-oligoadenylate synthetase like) | 3 | -0.434 | 108 | 80 |
| OASL (2'-5'-oligoadenylate synthetase like) | 4 | 0.211 | 76 | 87.9 |

Part of the list above, set out differently:
gene,reagent,log2 vehicle/camptothecin viability,viability with camptothecin (% of control),viability without drug (% of control)
SLC6A17,2,-0.135,99.7,90.8
SLC6A17,3,-0.522,80.5,56.1
SLC6A17,4,-0.169,56.4,50.1
UCKL1 (uridine-cytidine kinase 1 like 1),1,-0.241,52.6,44.5
UCKL1 (uridine-cytidine kinase 1 like 1),2,0.872,22.1,40.5
UCKL1 (uridine-cytidine kinase 1 like 1),3,-0.291,94.1,76.9
UCKL1 (uridine-cytidine kinase 1 like 1),4,-0.133,64.9,59.2
DAD1 (defender against cell death 1),1,0.324,80.5,101
DAD1 (defender against cell death 1),2,0.528,47.1,67.9
DAD1 (defender against cell death 1),3,-0.307,61.7,49.9
RPL10 (ribosomal protein L10),1,0.133,50.2,55
